Laboratory results as given in publication PMC9927549.

Molecular target: glycoprotein 5 (GP5) of PRRSV strain JXwn06, Flag-tagged (PRRSV strain JXwn06)
Assay: co-IP; HEK293T cells cotransfected with Flag-tagged GP5 and HA-tagged Nat9 constructs, harvested 24 h posttransfection; RIPA lysis; anti-Flag beads at 4°C overnight; Western blotting

B1: porcine Nat9 truncation, aa 33-212, HA-tagged (domain or fragment, UniProt A0A8W4F8U4 33-212)
chain: YHEWMKSEELQRLTASEPLTLEQEYAMQQSWREDADKCTFIVLAAEKWQGQPGPSEESCMAGDVNLFLTDLGDPSLGEIEVMIAEPSCRGQGLGTEAVLMMMAYGVTKLGLTTFEAKIGQENEPSIRMFRRLHFEQVAVSSVFQEVTLRLTMSEPERQWLLEQTSHMQEKPYRDGSSEPH
With B1 the binding was “binds”.

Results are given in words; binding and its absence hold for the method and conditions named. In cells and extracts the contact can be indirect. Binding calls can cover weak binding; strength is not graded here. Tags and fused reporters may be left off the sequences shown.
